Our source for the log2 fold change values is the supplement of paper PMC10849652.

Protein sequences, listed by entry. Tags and fused reporters are not part of them. Lines headed by an entry give the natural chain unless they say otherwise; changes in a name come on top.
UniProt Q8NBW4: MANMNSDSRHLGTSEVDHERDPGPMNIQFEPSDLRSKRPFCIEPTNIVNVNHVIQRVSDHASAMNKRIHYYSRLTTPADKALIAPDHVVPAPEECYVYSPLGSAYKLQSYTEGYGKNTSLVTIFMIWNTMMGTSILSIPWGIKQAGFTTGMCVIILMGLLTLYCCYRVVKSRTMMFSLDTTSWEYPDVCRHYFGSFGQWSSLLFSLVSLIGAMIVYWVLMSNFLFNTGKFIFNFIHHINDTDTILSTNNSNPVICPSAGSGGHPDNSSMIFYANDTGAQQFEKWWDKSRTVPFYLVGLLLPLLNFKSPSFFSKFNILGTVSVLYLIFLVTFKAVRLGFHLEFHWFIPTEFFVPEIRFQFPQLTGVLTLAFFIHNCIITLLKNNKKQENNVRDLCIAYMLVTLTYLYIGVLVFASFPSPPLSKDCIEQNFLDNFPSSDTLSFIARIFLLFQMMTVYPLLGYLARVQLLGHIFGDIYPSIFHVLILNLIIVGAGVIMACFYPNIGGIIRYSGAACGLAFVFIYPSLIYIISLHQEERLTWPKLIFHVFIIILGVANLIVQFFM
UniProt P08195: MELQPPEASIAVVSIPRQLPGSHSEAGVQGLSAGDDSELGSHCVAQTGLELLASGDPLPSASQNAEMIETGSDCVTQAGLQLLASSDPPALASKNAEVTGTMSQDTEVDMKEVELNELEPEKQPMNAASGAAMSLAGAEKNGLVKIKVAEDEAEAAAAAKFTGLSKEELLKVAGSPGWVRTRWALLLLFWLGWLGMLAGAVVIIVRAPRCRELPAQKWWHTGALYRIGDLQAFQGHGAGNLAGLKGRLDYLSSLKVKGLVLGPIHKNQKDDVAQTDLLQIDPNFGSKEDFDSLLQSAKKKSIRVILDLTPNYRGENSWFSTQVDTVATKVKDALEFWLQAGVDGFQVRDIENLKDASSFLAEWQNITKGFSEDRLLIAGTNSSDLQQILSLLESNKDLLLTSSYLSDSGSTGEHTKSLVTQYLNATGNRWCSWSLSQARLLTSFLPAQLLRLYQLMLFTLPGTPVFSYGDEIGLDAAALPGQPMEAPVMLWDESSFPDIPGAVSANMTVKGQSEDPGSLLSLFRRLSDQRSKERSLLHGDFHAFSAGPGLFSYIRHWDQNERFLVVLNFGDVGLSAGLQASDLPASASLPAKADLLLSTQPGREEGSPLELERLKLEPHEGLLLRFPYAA
UniProt Q9H2H9: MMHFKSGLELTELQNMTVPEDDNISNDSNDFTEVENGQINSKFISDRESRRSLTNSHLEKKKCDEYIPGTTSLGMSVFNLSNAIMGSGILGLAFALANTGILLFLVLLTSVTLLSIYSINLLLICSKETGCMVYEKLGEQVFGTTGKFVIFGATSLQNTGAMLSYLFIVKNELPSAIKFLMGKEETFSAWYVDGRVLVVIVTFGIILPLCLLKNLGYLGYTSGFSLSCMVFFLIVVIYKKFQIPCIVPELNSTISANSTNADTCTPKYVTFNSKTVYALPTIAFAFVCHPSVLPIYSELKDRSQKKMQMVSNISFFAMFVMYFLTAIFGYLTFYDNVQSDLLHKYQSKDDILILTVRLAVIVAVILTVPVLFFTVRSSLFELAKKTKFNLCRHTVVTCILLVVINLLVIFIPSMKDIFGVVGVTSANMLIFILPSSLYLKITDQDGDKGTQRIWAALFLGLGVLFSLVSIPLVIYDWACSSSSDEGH
UniProt P05141: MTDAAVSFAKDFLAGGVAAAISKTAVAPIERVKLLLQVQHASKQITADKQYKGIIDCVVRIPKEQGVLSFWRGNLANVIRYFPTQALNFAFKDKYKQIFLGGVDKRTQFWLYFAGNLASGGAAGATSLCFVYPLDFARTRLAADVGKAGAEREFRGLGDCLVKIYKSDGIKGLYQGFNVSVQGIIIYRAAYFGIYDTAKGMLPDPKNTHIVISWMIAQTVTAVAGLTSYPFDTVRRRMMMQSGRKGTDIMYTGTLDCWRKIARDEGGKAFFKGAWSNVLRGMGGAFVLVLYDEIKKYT
UniProt Q8N357: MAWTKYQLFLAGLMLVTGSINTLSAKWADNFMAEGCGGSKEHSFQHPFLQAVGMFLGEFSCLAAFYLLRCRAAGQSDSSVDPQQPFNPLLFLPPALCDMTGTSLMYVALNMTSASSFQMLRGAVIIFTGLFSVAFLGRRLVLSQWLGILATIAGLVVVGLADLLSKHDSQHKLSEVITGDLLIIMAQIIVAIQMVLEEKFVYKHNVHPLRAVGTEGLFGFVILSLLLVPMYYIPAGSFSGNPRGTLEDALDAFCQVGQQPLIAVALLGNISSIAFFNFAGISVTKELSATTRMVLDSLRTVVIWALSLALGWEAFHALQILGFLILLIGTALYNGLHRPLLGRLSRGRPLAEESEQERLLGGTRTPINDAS
UniProt Q02978: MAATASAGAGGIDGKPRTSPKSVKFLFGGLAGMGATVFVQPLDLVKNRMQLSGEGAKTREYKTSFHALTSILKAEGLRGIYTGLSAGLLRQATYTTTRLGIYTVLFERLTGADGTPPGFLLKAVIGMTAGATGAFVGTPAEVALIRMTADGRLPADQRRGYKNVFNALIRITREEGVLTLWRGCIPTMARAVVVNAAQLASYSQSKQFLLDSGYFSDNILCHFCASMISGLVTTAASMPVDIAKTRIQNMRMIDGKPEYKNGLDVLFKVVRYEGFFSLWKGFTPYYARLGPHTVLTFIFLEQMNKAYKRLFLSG
UniProt Q8N2U9: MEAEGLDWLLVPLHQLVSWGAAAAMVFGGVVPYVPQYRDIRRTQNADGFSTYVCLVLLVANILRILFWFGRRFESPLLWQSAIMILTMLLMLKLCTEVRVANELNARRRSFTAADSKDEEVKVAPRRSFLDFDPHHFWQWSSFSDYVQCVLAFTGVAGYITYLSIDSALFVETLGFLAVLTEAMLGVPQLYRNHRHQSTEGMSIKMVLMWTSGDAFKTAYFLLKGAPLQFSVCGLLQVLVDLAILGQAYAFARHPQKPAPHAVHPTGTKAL
UniProt Q9NP59: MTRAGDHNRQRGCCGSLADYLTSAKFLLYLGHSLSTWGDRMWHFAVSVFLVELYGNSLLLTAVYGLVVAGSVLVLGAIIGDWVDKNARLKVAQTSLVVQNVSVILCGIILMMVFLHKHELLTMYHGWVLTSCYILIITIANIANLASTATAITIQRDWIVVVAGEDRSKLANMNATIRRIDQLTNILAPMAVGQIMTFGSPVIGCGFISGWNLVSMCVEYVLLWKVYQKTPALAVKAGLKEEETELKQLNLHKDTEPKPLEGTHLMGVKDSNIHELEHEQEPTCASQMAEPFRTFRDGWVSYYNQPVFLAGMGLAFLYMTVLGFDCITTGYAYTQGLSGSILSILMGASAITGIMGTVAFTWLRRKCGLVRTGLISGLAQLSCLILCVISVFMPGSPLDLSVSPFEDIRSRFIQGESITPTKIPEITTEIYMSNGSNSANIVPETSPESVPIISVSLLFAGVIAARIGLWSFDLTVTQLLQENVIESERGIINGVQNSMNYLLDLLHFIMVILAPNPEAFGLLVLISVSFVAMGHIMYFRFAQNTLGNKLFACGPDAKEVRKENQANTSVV
UniProt Q9BZJ4: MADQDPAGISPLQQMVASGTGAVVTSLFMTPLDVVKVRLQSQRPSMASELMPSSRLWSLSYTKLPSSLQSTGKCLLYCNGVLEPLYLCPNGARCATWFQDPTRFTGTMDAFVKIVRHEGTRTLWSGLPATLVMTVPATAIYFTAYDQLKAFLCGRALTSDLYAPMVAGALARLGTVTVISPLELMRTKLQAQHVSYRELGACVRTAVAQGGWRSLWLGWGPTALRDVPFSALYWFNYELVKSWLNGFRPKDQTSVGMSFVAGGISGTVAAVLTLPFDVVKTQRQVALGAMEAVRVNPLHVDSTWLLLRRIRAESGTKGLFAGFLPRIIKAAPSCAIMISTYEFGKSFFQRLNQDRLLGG
UniProt P11169: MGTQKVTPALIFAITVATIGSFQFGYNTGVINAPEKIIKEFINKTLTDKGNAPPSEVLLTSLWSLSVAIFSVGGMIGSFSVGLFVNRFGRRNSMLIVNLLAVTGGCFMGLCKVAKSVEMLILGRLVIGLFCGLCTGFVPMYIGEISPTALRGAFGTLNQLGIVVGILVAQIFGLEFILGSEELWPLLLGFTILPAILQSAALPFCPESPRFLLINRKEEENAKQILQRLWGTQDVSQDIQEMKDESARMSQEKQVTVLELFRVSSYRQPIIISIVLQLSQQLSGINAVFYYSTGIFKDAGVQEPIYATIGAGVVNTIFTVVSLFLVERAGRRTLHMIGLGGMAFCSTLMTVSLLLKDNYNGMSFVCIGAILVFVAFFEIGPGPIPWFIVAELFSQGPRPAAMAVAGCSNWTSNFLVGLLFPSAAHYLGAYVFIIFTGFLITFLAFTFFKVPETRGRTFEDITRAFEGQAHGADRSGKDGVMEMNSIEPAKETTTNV
UniProt Q6P1K1: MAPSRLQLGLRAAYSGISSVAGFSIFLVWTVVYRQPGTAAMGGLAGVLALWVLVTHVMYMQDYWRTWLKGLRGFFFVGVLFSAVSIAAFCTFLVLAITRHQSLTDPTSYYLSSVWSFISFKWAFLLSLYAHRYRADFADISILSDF
UniProt Q9BSK2: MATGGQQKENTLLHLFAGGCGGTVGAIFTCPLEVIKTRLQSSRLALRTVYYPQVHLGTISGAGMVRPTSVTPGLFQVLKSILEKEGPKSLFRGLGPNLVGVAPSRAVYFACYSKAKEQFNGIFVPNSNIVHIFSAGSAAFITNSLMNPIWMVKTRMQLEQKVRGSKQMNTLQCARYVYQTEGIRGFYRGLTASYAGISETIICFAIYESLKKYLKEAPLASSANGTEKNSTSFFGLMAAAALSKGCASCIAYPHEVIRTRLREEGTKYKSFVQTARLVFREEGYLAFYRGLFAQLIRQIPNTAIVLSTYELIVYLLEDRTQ
UniProt Q9H936: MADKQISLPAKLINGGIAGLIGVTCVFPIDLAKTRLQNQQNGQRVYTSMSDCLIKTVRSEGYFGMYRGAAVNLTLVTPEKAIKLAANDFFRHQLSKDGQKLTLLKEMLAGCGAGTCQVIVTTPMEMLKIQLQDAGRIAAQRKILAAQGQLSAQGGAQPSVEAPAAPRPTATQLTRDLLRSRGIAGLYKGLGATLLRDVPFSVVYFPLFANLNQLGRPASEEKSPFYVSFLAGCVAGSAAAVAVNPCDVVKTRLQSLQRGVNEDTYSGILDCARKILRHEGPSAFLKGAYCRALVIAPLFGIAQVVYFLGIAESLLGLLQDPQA
UniProt Q9Y6M7: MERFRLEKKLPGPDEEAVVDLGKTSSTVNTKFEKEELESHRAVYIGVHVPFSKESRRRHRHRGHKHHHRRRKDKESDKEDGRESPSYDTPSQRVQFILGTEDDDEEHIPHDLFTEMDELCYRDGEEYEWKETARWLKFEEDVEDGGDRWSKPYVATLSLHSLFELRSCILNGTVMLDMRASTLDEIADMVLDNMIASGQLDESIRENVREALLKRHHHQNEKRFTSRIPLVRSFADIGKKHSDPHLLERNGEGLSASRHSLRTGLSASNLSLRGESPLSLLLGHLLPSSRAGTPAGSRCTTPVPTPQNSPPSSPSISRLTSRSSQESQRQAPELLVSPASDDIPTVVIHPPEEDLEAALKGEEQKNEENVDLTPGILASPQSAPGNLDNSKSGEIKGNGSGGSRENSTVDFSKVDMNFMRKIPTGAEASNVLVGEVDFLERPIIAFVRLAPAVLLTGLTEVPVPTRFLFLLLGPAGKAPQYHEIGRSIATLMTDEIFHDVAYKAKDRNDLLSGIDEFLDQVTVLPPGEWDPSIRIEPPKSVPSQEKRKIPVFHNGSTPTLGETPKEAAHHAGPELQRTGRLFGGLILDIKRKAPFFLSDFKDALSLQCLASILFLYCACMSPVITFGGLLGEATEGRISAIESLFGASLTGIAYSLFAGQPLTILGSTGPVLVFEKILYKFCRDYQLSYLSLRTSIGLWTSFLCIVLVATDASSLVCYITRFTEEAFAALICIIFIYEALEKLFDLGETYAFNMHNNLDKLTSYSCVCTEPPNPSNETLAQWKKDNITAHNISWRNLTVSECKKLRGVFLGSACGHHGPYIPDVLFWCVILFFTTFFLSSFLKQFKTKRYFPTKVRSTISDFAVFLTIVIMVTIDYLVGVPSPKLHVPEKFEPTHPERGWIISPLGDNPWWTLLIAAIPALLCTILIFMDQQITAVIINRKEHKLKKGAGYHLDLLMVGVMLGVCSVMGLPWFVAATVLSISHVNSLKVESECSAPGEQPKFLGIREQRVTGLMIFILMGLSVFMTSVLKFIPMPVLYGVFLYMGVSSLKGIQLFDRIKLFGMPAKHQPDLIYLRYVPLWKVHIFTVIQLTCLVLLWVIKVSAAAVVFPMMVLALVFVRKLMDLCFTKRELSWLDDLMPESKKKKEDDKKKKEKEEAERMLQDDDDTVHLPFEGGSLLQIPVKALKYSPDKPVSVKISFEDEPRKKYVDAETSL

The list shows a part of the results.

Compound in this assay: Cc1nc(Nc2ncc(C(=O)Nc3c(C)cccc3Cl)s2)cc(N2CCN(CCO)CC2)n1 [dasatinib]
Nature of the assay: log2 fold change, soluble protein after heating vs DMSO (PISA); higher = thermal stabilisation; K562 lysate, 10 uM; active = over 0.2 and 3.5 SD of the protein, either way, in both replicates (recomputed). In outline: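 K562 pellets were dounce-homogenised in PBS pH 7.4 with 1 mM MgCl2, and the crude extract at 1 mg/mL protein was treated with 10 μM compound for 30 min. Aliquots were heated for 3 min across 48°C-58°C, pooled, and brought to 0.5% NP-40 at 4°C; soluble protein was the supernatant after 21,000xg for 90 min. Soluble protein was quantified by TMTpro 16plex LC-MS/MS with channel sums equalised, and reported as log2 fold change in thermal stability against DMSO controls, with values from duplicates.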
Turning to SLC38A9 (UniProt Q8NBW4), the log2 fold change was inactive: 0.074.

For SLU7 (UniProt O95391), the log2 fold change was inactive: -0.025.

As for SLC25A24 (UniProt Q6NUK1), the log2 fold change is inactive: 0.017.

In the case of SLC3A2 isoform 3 (UniProt P08195), the log2 fold change is inactive: 0.028.

SLC38A1 (UniProt Q9H2H9): the log2 fold change is inactive: 0.001.

For the target SLC4A1AP (UniProt Q9BWU0), the log2 fold change is inactive: 0.017.

As for SLC25A5 (UniProt P05141), the log2 fold change is inactive: 0.126.

For the target SLC35F6 (UniProt Q8N357), the log2 fold change was inactive: 0.072.

As to SLC25A11 (UniProt Q02978), the log2 fold change was inactive: 0.031.

Turning to SLC66A2 (UniProt Q8N2U9), the log2 fold change is inactive: 0.053.

As to SLC40A1 (UniProt Q9NP59), the log2 fold change is inactive: -0.077.

As to SLC25A39 (UniProt Q9BZJ4), the log2 fold change was inactive: -0.084.

Consider SLC3A2 (UniProt F5GZS6), for which the log2 fold change was inactive: -0.008.

Consider SLC2A3 (UniProt P11169), for which the log2 fold change was inactive: 0.047.

As to SMAD5 (UniProt Q99717), the log2 fold change was inactive: -0.011.

For SLC48A1 (UniProt Q6P1K1), the log2 fold change is inactive: 0.083.

On to SLC33A1 (UniProt O00400), for which the log2 fold change was inactive: -0.012.

For SLC25A33 (UniProt Q9BSK2), the log2 fold change is inactive: 0.03.

On to SLC25A22 (UniProt Q9H936), for which the log2 fold change was inactive: 0.029.

As to SLC39A10 (UniProt Q9ULF5), the log2 fold change was inactive: 0.059.

SLC25A46 (UniProt Q96AG3): the log2 fold change was inactive: -0.065.

As to SLC4A7 isoform 7 (UniProt Q9Y6M7), the log2 fold change is inactive: 0.03.
